# According to the supplement of paper PMC10727501:
# This is one part of the list. Repeats in this data set agree poorly, so a single value says little.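 Free-swimming zebrafish larvae were assessed for O-bend response probability to dark flashes (naive: first five; training: remaining flashes across four 60-flash blocks; test: later 60-flash block) and for OMR turning toward alternating leftward/rightward LED motion. Six treated larvae were compared against sixty 0.1% DMSO controls; hits required |SSMD|≥2.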
# Tested on: Danio rerio larvae (5 dpf, TLF)
# Assay: Prob-Naive (SSMD vs DMSO vehicle); higher = higher than vehicle (e.g. higher dark-flash O-bend response probability, or better optomotor performance)
# Settings: 10 µM; pre-incubation: 30-90 min
row,Structure (SMILES),Prob-Naive
1,COc1ccc(-c2coc3cc(O)ccc3c2=O)cc1 [Formononetin],0.285
2,CC(=O)[C@@H]1CC[C@H]2[C@@H]3CC=C4C[C@@H](O)CC[C@]4(C)[C@@H]3CC[C@]12C [Pregnenolone],-0.161
3,CCCCOc1ccc(OCCCN2CCOCC2)cc1.Cl [Pramoxine HCl],-1.65
4,CN(CCOc1ccc(CC2SC(=O)NC2=O)cc1)c1ccccn1.O=C(O)/C=C\C(=O)O (stereo not given) [Rosiglitazone maleate],-0.714
5,O=C1Cc2c([nH]c3ccc(Br)cc23)-c2ncccc2N1 [1-Azakenpaullone],-0.32
6,CN(C)C(=O)Nc1cccc(-c2ccc(N(C)C)cc2)c1 [Atglistatin],-0.387
7,C=C1C(=O)[C@]23C(CC[C@@H]1[C@H]2O)[C@]12CO[C@]3(O)[C@H](O)[C@@H]1C(C)(C)CC[C@@H]2O (stereo not given in full) [Oridonin],-0.0728
8,Cc1ccc([C@@H]2O[C@H](CO)[C@@H](O)[C@H](O)[C@H]2O)cc1Cc1ccc(-c2ccc(F)cc2)s1 [Canagliflozin],0.186
9,C=CC(=O)Nc1cccc(Oc2nc(Nc3ccc(N4CCN(C)CC4)cc3OC)ncc2Cl)c1,0.313
10,CN(C)CCOC(C)(c1ccccc1)c1ccccn1.O=C(O)CCC(=O)O (stereo not given) [Doxylamine Succinate],0.0551
11,COc1ccc(O)cc1 [Mequinol],0.585
12,Cc1c(NC(=O)OC[C@@H]2COCCN2)cn2ncnc(Nc3ccc4c(cnn4Cc4cccc(F)c4)c3)c12.Cl,0.00409
13,O.O=c1c(O)c(-c2ccc(O)cc2O)oc2cc(O)cc(O)c12 [Morin Hydrate],-0.141
14,C[C@H]1OC(O)[C@H](O)[C@H](O)[C@H]1O.O (stereo partly drawn) [L-(+)-Rhamnose Monohydrate],0.285
15,Cc1ccc(S(=O)(=O)n2c(N)nc3ccccc32)cc1 [ML130 (Nodinitib-1)],-0.388
16,COc1c2occc2cc2ccc(=O)oc12 [Methoxsalen],-0.782
17,Cc1cc(NS(=O)(=O)c2ccc(N)cc2)no1 [Sulfamethoxazole],0
18,CO[C@H]1/C=C/O[C@@]2(C)Oc3c(C)c(O)c4c(c3C2=O)C2=NC3(CCN(CC(C)C)CC3)NC2=C(NC(=O)/C(C)=C/C=C/[C@H](C)[C@H](O)[C@@H](C)[C@@H](O)[C@@H](C)[C@H](OC(C)=O)[C@@H]1C)C4=O [Rifabutin],-0.423
19,C[C@@H]1[C@@H](OC(=O)CCC(=O)O)O[C@H]2O[C@@]3(C)CC[C@H]4[C@@H](C)CC[C@@H]1[C@@]24OO3 [Artesunate],-0.21
20,Cc1ccc2c(c1)c1c(n2CCc2ccc(C)nc2)CCN(C)C1 [Latrepirdine],0.271
21,O=C(O)C(Cc1ccccc1N(O)O)=NNC1=NC(c2ccc(Cl)c(Cl)c2)CS1 (stereo not given),-0.366
22,Cl.NC(=O)c1cnc(N[C@@H]2CCCC[C@H]2N)nc1Nc1cccc(-n2nccn2)c1,0.00516
23,"CC[C@H](Nc1ncnc2[nH]cnc12)c1nc2cccc(F)c2c(=O)n1-c1ccccc1 [CAL-101 (Idelalisib, GS-1101)]",-0.397
24,CC(C)(Sc1cc(C(C)(C)C)c(O)c(C(C)(C)C)c1)Sc1cc(C(C)(C)C)c(O)c(C(C)(C)C)c1 [Probucol],0.285
25,Cc1ccc(NC(=O)c2ccc(CN3CCN(C)CC3)cc2)cc1Nc1nccc(-c2cccnc2)n1 [Imatinib (STI571)],0.289
26,NC[C@H]1O[C@H](O[C@H]2[C@H](O)[C@@H](O[C@H]3O[C@H](CO)[C@@H](O)[C@H](N)[C@H]3O)[C@H](N)C[C@@H]2N)[C@H](N)[C@@H](O)[C@@H]1O [Bekanamycin],0.298

# Sorted by count of non-hydrogen atoms (rising): some entries from above
row,Structure (SMILES),Prob-Naive
17,Cc1cc(NS(=O)(=O)c2ccc(N)cc2)no1 [Sulfamethoxazole],0
21,O=C(O)C(Cc1ccccc1N(O)O)=NNC1=NC(c2ccc(Cl)c(Cl)c2)CS1 (stereo not given),-0.366
9,C=CC(=O)Nc1cccc(Oc2nc(Nc3ccc(N4CCN(C)CC4)cc3OC)ncc2Cl)c1,0.313

# Tested on: Danio rerio larvae (5 dpf, TLF)
# Assay: Prob-Train (SSMD vs DMSO vehicle); higher = higher than vehicle (e.g. higher dark-flash O-bend response probability, or better optomotor performance)
# Settings: 10 µM; pre-incubation: 30-90 min
row,Structure (SMILES),Prob-Train
1,O=C1NC(=O)C(=Cc2ccc(-c3ccc(F)cc3)o2)S1 (stereo in doubt),-0.886
2,Cn1nnc2c(C(N)=O)ncn2c1=O [Temozolomide],-0.177
3,Nc1nc(=O)c2c([nH]1)NC[C@H](CNc1ccc(C(=O)N[C@@H](CCC(=O)[O-])C(=O)[O-])cc1)N2C=O.[Ca+2] [Calcium levofolinate (Calcium Folinate)],-0.266
4,NC(=O)NO [Hydroxyurea],0.075
5,O=C1CCC(N2C(=O)c3ccccc3C2=O)C(=O)N1 (stereo not given) [Thalidomide],-0.0276
6,Nc1nc(=O)[nH]cc1F [Flucytosine],-0.594
7,C[C@]12CCC(=O)C=C1[C@@H]1C[C@@H]1[C@H]1[C@@H]3[C@@H]4C[C@@H]4[C@]4(CCC(=O)O4)[C@@]3(C)CC[C@H]12 [Drospirenone],-2.05
8,CC(C)(Oc1ccc(Cl)cc1)C(=O)O [Clofibric Acid],0.267
9,CCc1c(O)cc(O)c(C(=O)c2ccc(OCCN3CCOCC3)c(OC)c2)c1CC(=O)N(CCOC)CCOC,0.0361
10,NNC(=O)c1ccncc1.Nc1ccc(C(=O)O)c(O)c1 [Pasiniazid],0.0485
11,O=C1NC(=O)/C(=C/c2ccc3nccc(-c4ccncc4)c3c2)S1,0.0829
12,O=N[O-].[Na+] [Sodium Nitrite],-0.288
13,CN(C)/N=N/c1[nH]cnc1C(N)=O [Dacarbazine],-0.273
14,COc1ccc(-c2coc3cc(O)ccc3c2=O)cc1 [Formononetin],-0.37
15,CC(=O)[C@@H]1CC[C@H]2[C@@H]3CC=C4C[C@@H](O)CC[C@]4(C)[C@@H]3CC[C@]12C [Pregnenolone],-1.76
16,CCCCOc1ccc(OCCCN2CCOCC2)cc1.Cl [Pramoxine HCl],-2.22
17,CN(CCOc1ccc(CC2SC(=O)NC2=O)cc1)c1ccccn1.O=C(O)/C=C\C(=O)O (stereo not given) [Rosiglitazone maleate],-1.76
18,O=C1Cc2c([nH]c3ccc(Br)cc23)-c2ncccc2N1 [1-Azakenpaullone],-0.519
19,CN(C)C(=O)Nc1cccc(-c2ccc(N(C)C)cc2)c1 [Atglistatin],-0.79
20,C=C1C(=O)[C@]23C(CC[C@@H]1[C@H]2O)[C@]12CO[C@]3(O)[C@H](O)[C@@H]1C(C)(C)CC[C@@H]2O (stereo not given in full) [Oridonin],-0.811

row,Structure (SMILES),Prob-Train
1,Cc1ccc([C@@H]2O[C@H](CO)[C@@H](O)[C@H](O)[C@H]2O)cc1Cc1ccc(-c2ccc(F)cc2)s1 [Canagliflozin],-0.492
2,C=CC(=O)Nc1cccc(Oc2nc(Nc3ccc(N4CCN(C)CC4)cc3OC)ncc2Cl)c1,-0.473
3,CN(C)CCOC(C)(c1ccccc1)c1ccccn1.O=C(O)CCC(=O)O (stereo not given) [Doxylamine Succinate],-0.382
4,COc1ccc(O)cc1 [Mequinol],0.224
5,Cc1c(NC(=O)OC[C@@H]2COCCN2)cn2ncnc(Nc3ccc4c(cnn4Cc4cccc(F)c4)c3)c12.Cl,0.237
6,O.O=c1c(O)c(-c2ccc(O)cc2O)oc2cc(O)cc(O)c12 [Morin Hydrate],-0.366
7,C[C@H]1OC(O)[C@H](O)[C@H](O)[C@H]1O.O (stereo partly drawn) [L-(+)-Rhamnose Monohydrate],0.135
8,Cc1ccc(S(=O)(=O)n2c(N)nc3ccccc32)cc1 [ML130 (Nodinitib-1)],-2.31
9,COc1c2occc2cc2ccc(=O)oc12 [Methoxsalen],-1.16
10,Cc1cc(NS(=O)(=O)c2ccc(N)cc2)no1 [Sulfamethoxazole],0.19
11,CO[C@H]1/C=C/O[C@@]2(C)Oc3c(C)c(O)c4c(c3C2=O)C2=NC3(CCN(CC(C)C)CC3)NC2=C(NC(=O)/C(C)=C/C=C/[C@H](C)[C@H](O)[C@@H](C)[C@@H](O)[C@@H](C)[C@H](OC(C)=O)[C@@H]1C)C4=O [Rifabutin],0.921
12,C[C@@H]1[C@@H](OC(=O)CCC(=O)O)O[C@H]2O[C@@]3(C)CC[C@H]4[C@@H](C)CC[C@@H]1[C@@]24OO3 [Artesunate],-0.143
13,Cc1ccc2c(c1)c1c(n2CCc2ccc(C)nc2)CCN(C)C1 [Latrepirdine],-0.335
14,O=C(O)C(Cc1ccccc1N(O)O)=NNC1=NC(c2ccc(Cl)c(Cl)c2)CS1 (stereo not given),-0.472
15,Cl.NC(=O)c1cnc(N[C@@H]2CCCC[C@H]2N)nc1Nc1cccc(-n2nccn2)c1,-0.14
16,"CC[C@H](Nc1ncnc2[nH]cnc12)c1nc2cccc(F)c2c(=O)n1-c1ccccc1 [CAL-101 (Idelalisib, GS-1101)]",-0.322
17,CC(C)(Sc1cc(C(C)(C)C)c(O)c(C(C)(C)C)c1)Sc1cc(C(C)(C)C)c(O)c(C(C)(C)C)c1 [Probucol],0.25
18,Cc1ccc(NC(=O)c2ccc(CN3CCN(C)CC3)cc2)cc1Nc1nccc(-c2cccnc2)n1 [Imatinib (STI571)],-0.275
19,NC[C@H]1O[C@H](O[C@H]2[C@H](O)[C@@H](O[C@H]3O[C@H](CO)[C@@H](O)[C@H](N)[C@H]3O)[C@H](N)C[C@@H]2N)[C@H](N)[C@@H](O)[C@@H]1O [Bekanamycin],0.213
